In the assay the target is GST-tagged ASF/SF2 (alternative splicing factor 1/pre-mRNA splicing factor SF2) (UniProt Q07955). Nature of the assay: AlphaScreen or HTRF; His6-TRN-SR2 titrated (3-fold dilution series from 1,000 nM) over a fixed 30 nM GST-ASF/SF2; 25 mM Tris pH 7.4, 150 mM NaCl, 1 mM MgCl2, 0.1% Tween 20, 0.1% BSA; both purified. For orientation: Alpha assays give light when donor and acceptor beads are brought close together.

Chains of the proteins cited; added tags and fusions are not shown.
UniProt Q07955: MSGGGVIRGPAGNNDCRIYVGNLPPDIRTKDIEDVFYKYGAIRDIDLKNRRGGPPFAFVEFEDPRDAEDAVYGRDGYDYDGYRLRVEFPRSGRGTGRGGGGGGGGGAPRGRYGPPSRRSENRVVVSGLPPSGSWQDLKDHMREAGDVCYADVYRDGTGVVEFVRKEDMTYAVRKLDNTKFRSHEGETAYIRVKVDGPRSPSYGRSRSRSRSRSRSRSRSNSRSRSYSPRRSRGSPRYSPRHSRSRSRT

Consider two molecules from PMC8510174.

No constants are given. Whether binding was seen depends on the method and setting. Some entries that bind do so weakly or less than the wild type. Tags and fused reporters may be left off the sequences shown.

B1: His6-tagged ΔV105 TRN-SR2 (protein, UniProt Q9Y5L0-2 1-923)
chain: MEGAKPTLQLVYQAVQALYHDPDPSGKERASFWLGELQRSVHAWEISDQLLQIRQDVESCYFAAQTMKMKIQTSFYELPTDSHASLRDSLLTHIQNLKDLSPVITQLALAIADLALQMPSWKGCVQTLVEKYSNDVTSLPFLLEILTVLPEEVHSRSLRIGANRRTEIIEDLAFYSSTVVSLLMTCVEKAGTDEKMLMKVFRCLGSWFNLGVLDSNFMANNKLLALLFEVLQQDKTSSNLHEAASDCVCSALYAIENVETNLPLAMQLFQGVLTLETAYHMAVAREDLDKVLNYCRIFTELCETFLEKIVCTPGQGLGDLRTLELLLICAGHPQYEVVEISFNFWYRLGEHLYKTNDEVIHGIFKAYIQRLLHALARHCQLEPDHEGVPEETDDFGEFRMRVSDLVKDLIFLIGSMECFAQLYSTLKEGNPPWEVTEAVLFIMAAIAKSVDPENNPTLVEVLEGVVRLPETVHTAVRYTSIELVGEMSEVVDRNPQFLDPVLGYLMKGLCEKPLASAAAKAIHNICSVCRDHMAQHFNGLLEIARSLDSFLLSPEAAVGLLKGTALVLARLPLDKITECLSELCSVQVMALKKLLSQEPSNGISSDPTVFLDRLAVIFRHTNPIVENGQTHPCQKVIQEIWPVLSETLNKHRADNRIVERCCRCLRFAVRCVGKGSAALLQPLVTQMVNVYHVHQHSCFLYLGSILVDEYGMEEGCRQGLLDMLQALCIPTFQLLEQQNGLQNHPDTVDDLFRLATRFIQRSPVTLLRSQVVIPILQWAIASTTLDHRDANCSVMRFLRDLIHTGVANDHEEDFELRKELIGQVMNQLGQQLVSQLLHTCCFCLPPYTLPDVAEVLWEIMQVDRPTFCRWLENSLKGLPKETTVGAVTVTHKQLTDFHKQVTSAEECKQVCWALRDFTRLFR
For B1, the binding result is “binds”.

B2: His6-tagged WT TRN-SR2 (transportin-SR2) (protein, UniProt Q9Y5L0-2 1-923)
chain: MEGAKPTLQLVYQAVQALYHDPDPSGKERASFWLGELQRSVHAWEISDQLLQIRQDVESCYFAAQTMKMKIQTSFYELPTDSHASLRDSLLTHIQNLKDLSPVIVTQLALAIADLALQMPSWKGCVQTLVEKYSNDVTSLPFLLEILTVLPEEVHSRSLRIGANRRTEIIEDLAFYSSTVVSLLMTCVEKAGTDEKMLMKVFRCLGSWFNLGVLDSNFMANNKLLALLFEVLQQDKTSSNLHEAASDCVCSALYAIENVETNLPLAMQLFQGVLTLETAYHMAVAREDLDKVLNYCRIFTELCETFLEKIVCTPGQGLGDLRTLELLLICAGHPQYEVVEISFNFWYRLGEHLYKTNDEVIHGIFKAYIQRLLHALARHCQLEPDHEGVPEETDDFGEFRMRVSDLVKDLIFLIGSMECFAQLYSTLKEGNPPWEVTEAVLFIMAAIAKSVDPENNPTLVEVLEGVVRLPETVHTAVRYTSIELVGEMSEVVDRNPQFLDPVLGYLMKGLCEKPLASAAAKAIHNICSVCRDHMAQHFNGLLEIARSLDSFLLSPEAAVGLLKGTALVLARLPLDKITECLSELCSVQVMALKKLLSQEPSNGISSDPTVFLDRLAVIFRHTNPIVENGQTHPCQKVIQEIWPVLSETLNKHRADNRIVERCCRCLRFAVRCVGKGSAALLQPLVTQMVNVYHVHQHSCFLYLGSILVDEYGMEEGCRQGLLDMLQALCIPTFQLLEQQNGLQNHPDTVDDLFRLATRFIQRSPVTLLRSQVVIPILQWAIASTTLDHRDANCSVMRFLRDLIHTGVANDHEEDFELRKELIGQVMNQLGQQLVSQLLHTCCFCLPPYTLPDVAEVLWEIMQVDRPTFCRWLENSLKGLPKETTVGAVTVTHKQLTDFHKQVTSAEECKQVCWALRDFTRLFR
As to B2, the binding entry is listed as “binds”.
